From patent US9944967B2, “Methods for the site-selective introduction of halogen into natural products” (THE REGENTS OF THE UNIVERSITY OF CALIFORNIA, priority 2013, dated 2018)

Tested on: cells expressing MatB, NphT7, and PhaB
Test: 19F-NMR analysis of E. coli cells expressing MatB, NphT7 and PhaB fed fluoromalonate
Type: cell-based
Conditions: fluoromalonate (42 mM) added to cell suspension; 19F NMR ERETIC; normalized to total suspension volume

O=C(O)CF [Fluoroacetate, reference compound]
Extracellular concentration: 1.1 mM | Intracellular concentration: 0.2 mM

CC(O)C(F)C(=O)O (stereo not drawn) [Fluorohydroxybutyrate]
Extracellular concentration: 0.2 mM | Intracellular concentration: 0.1 mM

Fluoromalonate
Extracellular concentration: 36.9 mM | Intracellular concentration: 0.9 mM
